Measurements from paper PMC5996148.
The list shows a part of the results.

Key:
Test in all cases: protein microarray (ProtoArray v5.0), streptavidin-Alexa Fluor 647
Settings in all cases: 3'-biotin; 20 mM Tris (pH 7.5), 5 mM MgCl2, 100 mM KCl, 0.1% Tween-20, A/T-rich and random oligonucleotide blockers; temperature not stated; high values mean tight binding
MGC13057 (human) = test system: MGC13057 (human)
MGC23270 (human) = test system: MGC23270 (human)
MGC23985 (human) = test system: MGC23985 (human)
MGC24103 (human) = test system: MGC24103 (human)
MGC24125 (human) = test system: MGC24125 (human)
MGC29506 (human) = test system: MGC29506 (human)
MGRN1 (human) = test system: MGRN1 (human)
MIER1 (human) = test system: MIER1 (human)
MIR16 (human) = test system: MIR16 (human)
MLC1 (human) = test system: MLC1 (human)

## GGGGACAGGGGTATGGGGAGGGG [G4-3 biotinylated (CtG)]
MGC13057 (human)
  binding signal: -0.33 z-score
MGC23270 (human)
  binding signal: -0.309 z-score
MGC23985 (human)
  binding signal: -0.33 z-score
MGC24103 (human)
  binding signal: -0.331 z-score
MGC24125 (human)
  binding signal: -0.337 z-score
MGC29506 (human)
  binding signal: -0.306 z-score
MGRN1 (human)
  binding signal: -0.335 z-score
MIER1 (human)
  binding signal: -0.284 z-score
MIR16 (human)
  binding signal: -0.322 z-score
MLC1 (human)
  binding signal: -0.325 z-score
